Results deposited as PubChem BioAssay AID1224830 (NIAID, 2016)
In all, the deposit lists about 18,000 reagents; below is a random part of them. About 2,900 of all reagents (16%) were called active. 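Calls are made per well; low scores hint the gene aids the LPS response, high scores that it dampens it.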 Repeated entries: four replicate wells of each siRNA pool.

- Screen: 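Genes whose knock-down alters the TNF-alpha reporter response to LPS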 (primary screen)
- Cells: human THP-1 monocytic leukaemia cells, TNF dual-luciferase reporter clone, PMA-differentiated to macrophage-like cells
- Knock-down reagent: siRNA pool against human genes, 50 nM
- Time to read-out: LPS for 4 h, given about 3 days after siRNA transfection
- Treatment: bacterial LPS (TLR4 ligand), 10 ng/ml
- Measured: 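Ratio of firefly to renilla light, scaled to the plate median and expressed as a robust z-score per replicate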
- Reading the numbers: TNF reporter robust z-score: higher = stronger TNF reporter response to LPS
- Call rule: 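a well is active when its z-score exceeds 2.8 or falls below -1.5; control wells carry no call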

gene	TNF reporter robust z-score	outcome
UBALD2 (UBA like domain containing 2)	-1.13	inactive
UBALD2 (UBA like domain containing 2)	-1.12	inactive
UBALD2 (UBA like domain containing 2)	-1.06	inactive
UBALD2 (UBA like domain containing 2)	0.83	inactive
SLC39A13	-0.12	inactive
SLC39A13	-0.63	inactive
SLC39A13	-0.65	inactive
SLC39A13	-1.39	inactive
PTGER1 (prostaglandin E receptor 1)	0.93	inactive
PTGER1 (prostaglandin E receptor 1)	-0.09	inactive
PTGER1 (prostaglandin E receptor 1)	1.95	inactive
PTGER1 (prostaglandin E receptor 1)	0.48	inactive
LRRC4 (leucine rich repeat containing 4)	-2.03	active
LRRC4 (leucine rich repeat containing 4)	-1.79	active
LRRC4 (leucine rich repeat containing 4)	-1.15	inactive
LRRC4 (leucine rich repeat containing 4)	-0.77	inactive
CEP85L (centrosomal protein 85L)	0.69	inactive
CEP85L (centrosomal protein 85L)	2.04	inactive
CEP85L (centrosomal protein 85L)	0	inactive
CEP85L (centrosomal protein 85L)	0.96	inactive
WARS2 (tryptophanyl tRNA synthetase 2, mitochondrial)	0.03	inactive
WARS2 (tryptophanyl tRNA synthetase 2, mitochondrial)	-1.24	inactive
WARS2 (tryptophanyl tRNA synthetase 2, mitochondrial)	0.07	inactive
WARS2 (tryptophanyl tRNA synthetase 2, mitochondrial)	-0.03	inactive
LYPLA1 (lysophospholipase 1)	-0.42	inactive
LYPLA1 (lysophospholipase 1)	0.7	inactive
LYPLA1 (lysophospholipase 1)	0.2	inactive
LYPLA1 (lysophospholipase 1)	0.99	inactive
TLCD3A (TLC domain containing 3A)	1.3	inactive
TLCD3A (TLC domain containing 3A)	1.26	inactive
TLCD3A (TLC domain containing 3A)	-0.87	inactive
TLCD3A (TLC domain containing 3A)	-0.22	inactive
CYP3A43 (cytochrome P450 family 3 subfamily A member 43)	2.44	inactive
CYP3A43 (cytochrome P450 family 3 subfamily A member 43)	3.04	active
CYP3A43 (cytochrome P450 family 3 subfamily A member 43)	0.77	inactive
CYP3A43 (cytochrome P450 family 3 subfamily A member 43)	-0.06	inactive
YPEL4 (yippee like 4)	-0.59	inactive
YPEL4 (yippee like 4)	-0.04	inactive
YPEL4 (yippee like 4)	1.14	inactive
YPEL4 (yippee like 4)	-1.76	active
CDC123 (cell division cycle 123)	-0.63	inactive
CDC123 (cell division cycle 123)	0.8	inactive
CDC123 (cell division cycle 123)	0.36	inactive
CDC123 (cell division cycle 123)	-0.25	inactive
ANO7 (anoctamin 7)	-1.57	active
ANO7 (anoctamin 7)	-1.26	inactive
ANO7 (anoctamin 7)	-1.45	inactive
ANO7 (anoctamin 7)	-1.02	inactive
CYB5R4 (cytochrome b5 reductase 4)	-0.28	inactive
CYB5R4 (cytochrome b5 reductase 4)	-0.19	inactive
CYB5R4 (cytochrome b5 reductase 4)	-0.39	inactive
CYB5R4 (cytochrome b5 reductase 4)	0.36	inactive
AHCTF1 (AT-hook containing transcription factor 1)	-0.44	inactive
AHCTF1 (AT-hook containing transcription factor 1)	1.47	inactive
AHCTF1 (AT-hook containing transcription factor 1)	0.53	inactive
AHCTF1 (AT-hook containing transcription factor 1)	0.24	inactive
HMGCLL1 (3-hydroxy-3-methylglutaryl-CoA lyase like 1)	0.6	inactive
HMGCLL1 (3-hydroxy-3-methylglutaryl-CoA lyase like 1)	0.94	inactive
HMGCLL1 (3-hydroxy-3-methylglutaryl-CoA lyase like 1)	0.13	inactive
HMGCLL1 (3-hydroxy-3-methylglutaryl-CoA lyase like 1)	0.57	inactive
TMEM17 (transmembrane protein 17)	0.13	inactive
TMEM17 (transmembrane protein 17)	0.52	inactive
TMEM17 (transmembrane protein 17)	-1.13	inactive
TMEM17 (transmembrane protein 17)	-0.91	inactive
GNAI1 (G protein subunit alpha i1)	-0.47	inactive
GNAI1 (G protein subunit alpha i1)	-1.15	inactive
GNAI1 (G protein subunit alpha i1)	-0.3	inactive
GNAI1 (G protein subunit alpha i1)	0.62	inactive
C6orf62 (chromosome 6 open reading frame 62)	0.48	inactive
C6orf62 (chromosome 6 open reading frame 62)	0.64	inactive
C6orf62 (chromosome 6 open reading frame 62)	0.72	inactive
C6orf62 (chromosome 6 open reading frame 62)	0.56	inactive
PTPRG (protein tyrosine phosphatase receptor type G)	-0.95	inactive
PTPRG (protein tyrosine phosphatase receptor type G)	0.06	inactive
PTPRG (protein tyrosine phosphatase receptor type G)	2.17	inactive
PTPRG (protein tyrosine phosphatase receptor type G)	0.23	inactive
C18orf32 (chromosome 18 open reading frame 32)	0.41	inactive
C18orf32 (chromosome 18 open reading frame 32)	-0.08	inactive
C18orf32 (chromosome 18 open reading frame 32)	-0.65	inactive
C18orf32 (chromosome 18 open reading frame 32)	0.23	inactive
DHRSX (dehydrogenase/reductase X-linked)		inactive
DHRSX (dehydrogenase/reductase X-linked)	1.25	inactive
DHRSX (dehydrogenase/reductase X-linked)	2.04	inactive
DHRSX (dehydrogenase/reductase X-linked)	3.01	active
DHRSX (dehydrogenase/reductase X-linked)	2.13	inactive
MRPL2 (mitochondrial ribosomal protein L2)	0.59	inactive
MRPL2 (mitochondrial ribosomal protein L2)	0.39	inactive
MRPL2 (mitochondrial ribosomal protein L2)	-0.64	inactive
MRPL2 (mitochondrial ribosomal protein L2)	-0.17	inactive
CDKN2A (cyclin dependent kinase inhibitor 2A)	-0.42	inactive
CDKN2A (cyclin dependent kinase inhibitor 2A)	-0.84	inactive
CDKN2A (cyclin dependent kinase inhibitor 2A)	-0.54	inactive
CDKN2A (cyclin dependent kinase inhibitor 2A)	-0.8	inactive
P2RX7 (purinergic receptor P2X 7)	0.69	inactive
P2RX7 (purinergic receptor P2X 7)	-0.13	inactive
P2RX7 (purinergic receptor P2X 7)	0.39	inactive
P2RX7 (purinergic receptor P2X 7)	-1.68	active
CAB39L (calcium binding protein 39 like)	-0.33	inactive
CAB39L (calcium binding protein 39 like)	-0.55	inactive
CAB39L (calcium binding protein 39 like)	-1.19	inactive
CAB39L (calcium binding protein 39 like)	-0.28	inactive
OXNAD1 (oxidoreductase NAD binding domain containing 1)	-0.54	inactive
OXNAD1 (oxidoreductase NAD binding domain containing 1)	0	inactive
OXNAD1 (oxidoreductase NAD binding domain containing 1)	-0.18	inactive
OXNAD1 (oxidoreductase NAD binding domain containing 1)	-0.5	inactive
PARP10 (poly(ADP-ribose) polymerase family member 10)	-1.4	inactive
PARP10 (poly(ADP-ribose) polymerase family member 10)	-1.28	inactive
PARP10 (poly(ADP-ribose) polymerase family member 10)	-1.27	inactive
PARP10 (poly(ADP-ribose) polymerase family member 10)	-1.02	inactive
TOR3A (torsin family 3 member A)	-0.19	inactive
TOR3A (torsin family 3 member A)	0.53	inactive
TOR3A (torsin family 3 member A)	-0.48	inactive
TOR3A (torsin family 3 member A)	0.3	inactive
ZNF354B (zinc finger protein 354B)	-1.16	inactive
ZNF354B (zinc finger protein 354B)	-1	inactive
ZNF354B (zinc finger protein 354B)	-1.24	inactive
ZNF354B (zinc finger protein 354B)	-1.19	inactive
TAS2R3 (taste 2 receptor member 3)	0.49	inactive
TAS2R3 (taste 2 receptor member 3)	1.61	inactive
TAS2R3 (taste 2 receptor member 3)	0.31	inactive
TAS2R3 (taste 2 receptor member 3)	1.41	inactive
KPNA5 (karyopherin subunit alpha 5)	-0.61	inactive
KPNA5 (karyopherin subunit alpha 5)	0.26	inactive
KPNA5 (karyopherin subunit alpha 5)	0.17	inactive
KPNA5 (karyopherin subunit alpha 5)	1.2	inactive
FLII (FLII actin remodeling protein)	-0.24	inactive
FLII (FLII actin remodeling protein)	0.33	inactive
FLII (FLII actin remodeling protein)	0.79	inactive
FLII (FLII actin remodeling protein)	-0.04	inactive
THBS3 (thrombospondin 3)	0.06	inactive
THBS3 (thrombospondin 3)	0.59	inactive
THBS3 (thrombospondin 3)	-0.81	inactive
THBS3 (thrombospondin 3)	-0.76	inactive
TRMT61B (tRNA methyltransferase 61B)	1.51	inactive
TRMT61B (tRNA methyltransferase 61B)	0.18	inactive
TRMT61B (tRNA methyltransferase 61B)	1.41	inactive
TRMT61B (tRNA methyltransferase 61B)	0.6	inactive
STX4 (syntaxin 4)	3.52	active
STX4 (syntaxin 4)	1.75	inactive
STX4 (syntaxin 4)	3.45	active
STX4 (syntaxin 4)	3.83	active

A stretch from the list above, for reference:
gene	TNF reporter robust z-score	outcome
MRPL2 (mitochondrial ribosomal protein L2)	-0.64	inactive
MRPL2 (mitochondrial ribosomal protein L2)	-0.17	inactive
CDKN2A (cyclin dependent kinase inhibitor 2A)	-0.42	inactive
CDKN2A (cyclin dependent kinase inhibitor 2A)	-0.84	inactive
CDKN2A (cyclin dependent kinase inhibitor 2A)	-0.54	inactive
CDKN2A (cyclin dependent kinase inhibitor 2A)	-0.8	inactive
P2RX7 (purinergic receptor P2X 7)	0.69	inactive
P2RX7 (purinergic receptor P2X 7)	-0.13	inactive
P2RX7 (purinergic receptor P2X 7)	0.39	inactive
P2RX7 (purinergic receptor P2X 7)	-1.68	active
CAB39L (calcium binding protein 39 like)	-0.33	inactive
CAB39L (calcium binding protein 39 like)	-0.55	inactive
CAB39L (calcium binding protein 39 like)	-1.19	inactive
CAB39L (calcium binding protein 39 like)	-0.28	inactive
OXNAD1 (oxidoreductase NAD binding domain containing 1)	-0.54	inactive
OXNAD1 (oxidoreductase NAD binding domain containing 1)	0	inactive
OXNAD1 (oxidoreductase NAD binding domain containing 1)	-0.18	inactive
OXNAD1 (oxidoreductase NAD binding domain containing 1)	-0.5	inactive
PARP10 (poly(ADP-ribose) polymerase family member 10)	-1.4	inactive
PARP10 (poly(ADP-ribose) polymerase family member 10)	-1.28	inactive
